Source: PubChem BioAssay AID330 (DTP/NCI, 2004)
The list does not hold the whole screen: it gathers tests that were run many times, whatever their T/C, doses with no T/C, and many T/C values between a quarter and a half above the control. Further doses and runs are listed elsewhere. T/C: endpoint of the treated group in % of that of the vehicle group. Some doses have a count of surviving animals in place of a T/C: the source holds a T/C of zero for them, seemingly a mark for toxic or unscored doses. Some survivor counts are full or nearly so, which does not show that the dose was tolerated: the source hardly ever lists a survival T/C far under the control, and the zero likely stands for such cases as well. Counts of survivors are from the toxicity check (mostly the fifth day) where no day follows; animals may have died later. Schedules are NCI's codes, taken here to give the interval after Q, in days (D) or hours (H), and the number of doses after X. Some entries were tested several times; the values are given in rising order. Some molecules as drawn cover several salts, stereoisomers or complexes of the source; a dose is that of the sample tested. Where survival is the endpoint, this PubChem deposit counts one and a half times the control or more as active, and values a quarter to a half above the control carry no call in these data; other NCI protocols may use other cut-offs. Some T/C values carry the count of animals alive at the toxicity check (mostly the fifth day); without a count, all were alive then.

System: P388 leukemia ip, CD2F1 mice, survival T/C
Test: NCI In Vivo Anticancer Drug Screen. Data for tumor model P388 Leukemia (intraperitoneal) in CD2F1 (CDF1) mice
Details: T/C endpoint: median survival time, higher T/C = longer survival
[1] = dose: 100.0 mg/kg/injection, schedule: Q01DX009 (ip), vehicle: saline with Tween-80
[2] = dose: 25.0 mg/kg/injection, schedule: Q01DX009 (ip), vehicle: Klucel (hydroxypropylcellulose) (HPC)

CN(C)C(=O)c1cccc2ccc[n+](C)c12
survivor count (dose: 0.62 mg/kg/injection, schedule: Q04DX002 (ip), vehicle: saline): 6 of 6
survivor count (dose: 1.25 mg/kg/injection, schedule: Q04DX002 (ip), vehicle: saline): 2 of 6
survivor count (dose: 2.5 mg/kg/injection, schedule: Q04DX002 (ip), vehicle: saline): 0 of 6
survivor count (dose: 12.5 mg/kg/injection, schedule: Q04DX002 (ip), vehicle: saline): 0 of 6
survivor count (dose: 25.0 mg/kg/injection, schedule: Q04DX002 (ip), vehicle: saline): 0 of 6
survivor count (dose: 50.0 mg/kg/injection, schedule: Q04DX002 (ip), vehicle: saline): 0 of 6

C[N+]1(CSC(=O)c2ccccc2)CCCCC1
T/C (dose: 25.0 mg/kg/injection, schedule: Q01DX009 (ip), vehicle: saline with Tween-80): 127 and 131 % of control
survivor count (dose: 25.0 mg/kg/injection, schedule: Q01DX009 (ip), vehicle: saline): 3 of 6
T/C (dose: 50.0 mg/kg/injection, schedule: Q01DX009 (ip), vehicle: saline with Tween-80): 127 % of control
survivor count (dose: 50.0 mg/kg/injection, schedule: Q01DX009 (ip), vehicle: saline): 0 of 6 and 3 of 6
survivor count [1]: 3 of 6
survivor count (dose: 100.0 mg/kg/injection, schedule: Q01DX009 (ip), vehicle: saline): 0 of 6
survivor count (dose: 200.0 mg/kg/injection, schedule: Q01DX009 (ip), vehicle: saline with Tween-80): 0 of 6
survivor count (dose: 200.0 mg/kg/injection, schedule: Q01DX009 (ip), vehicle: saline): 0 of 6

BrC1=CC(Br)=C2N=C(N3CCCC3)N=C3N=C(C(Br)(Br)Br)N=C1N32
survivor count (dose: 60.0 mg/kg/injection, schedule: Q01DX005 (ip), vehicle: Klucel (hydroxypropylcellulose) (HPC)): 6 of 6
survivor count (dose: 120.0 mg/kg/injection, schedule: Q01DX005 (ip), vehicle: Klucel (hydroxypropylcellulose) (HPC)): 6 of 6

CC(=O)C1SCC[S+]1C (stereo not drawn)
survivor count (dose: 120.0 mg/kg/injection, schedule: Q01DX005 (ip), vehicle: saline): 0 of 6
survivor count (dose: 240.0 mg/kg/injection, schedule: Q01DX005 (ip), vehicle: saline): 0 of 6

CCCCC(CC)(CC(=N)C(C)(C)C)c1ccccc1 (stereo not drawn)
survivor count (dose: 400.0 mg/kg/injection, schedule: Q01DX009 (ip), vehicle: saline + alcohol): 3 of 6

CNC(=O)OCc1c(COC(=O)NC)c(-c2cccs2)n2c1CCC2
T/C (dose: 25.0 mg/kg/injection, schedule: Q01DX005 (ip), vehicle: saline with Tween-80): 133 % of control
T/C (dose: 50.0 mg/kg/injection, schedule: Q01DX005 (ip), vehicle: saline with Tween-80): 127 % of control [5 of 6 alive]
survivor count (dose: 100.0 mg/kg/injection, schedule: Q01DX005 (ip), vehicle: saline with Tween-80): 5 of 6 and 6 of 6
survivor count (dose: 200.0 mg/kg/injection, schedule: Q01DX005 (ip), vehicle: saline with Tween-80): 1 of 6

CCNSc1ccccc1
survivor count (dose: 100.0 mg/kg/injection, schedule: Q01DX009 (ip), vehicle: Klucel (hydroxypropylcellulose) (HPC)): 0 of 6
survivor count (dose: 200.0 mg/kg/injection, schedule: Q01DX009 (ip), vehicle: Klucel (hydroxypropylcellulose) (HPC)): 0 of 6

CCOC(=O)c1cc(CC)sc1N
survivor count (dose: 400.0 mg/kg/injection, schedule: Q01DX009 (ip), vehicle: saline with Tween-80): 3 of 6

CSc1nc2c3ccccc3ccn2c(=N)c1C#N
survivor count (dose: 100.0 mg/kg/injection, schedule: Q04DX002 (ip), vehicle: saline): 5 of 6

Cc1[nH]c2c(ccc3ccccc32)c(=O)c1N=Nc1ccc(C(=N)N)cc1
T/C (dose: 50.0 mg/kg/injection, schedule: Q01DX005 (ip), vehicle: Klucel + Tween-80): 142 % of control
T/C (dose: 100.0 mg/kg/injection, schedule: Q01DX005 (ip), vehicle: Klucel + Tween-80): 126 [5 of 6 alive] and 135 % of control
T/C (dose: 200.0 mg/kg/injection, schedule: Q01DX005 (ip), vehicle: Klucel + Tween-80): 135 % of control

c1ccc(Cc2cccc[n+]2C(c2ccccc2)c2ccccc2)cc1
survivor count [2]: 0 of 6
survivor count (dose: 50.0 mg/kg/injection, schedule: Q01DX009 (ip), vehicle: Klucel (hydroxypropylcellulose) (HPC)): 0 of 6

O=C(O)Cn1nnc2ccccc21
survivor count (dose: 400.0 mg/kg/injection, schedule: Q01DX009 (ip), vehicle: saline): 6 of 6

CC(/C=C/c1ccccc1)=N\NC(=S)Nc1ccc(Br)cc1
survivor count (dose: 200.0 mg/kg/injection, schedule: Q04DX002 (ip), vehicle: Klucel (hydroxypropylcellulose) (HPC)): 6 of 6
survivor count (dose: 400.0 mg/kg/injection, schedule: Q04DX002 (ip), vehicle: Klucel (hydroxypropylcellulose) (HPC)): 6 of 6

CCSCC1C(=O)C23CC1CCC2C12COC(O)C1C(C)(C)C(O)CC2OC3=O (stereo not drawn)
survivor count [2]: 6 of 6

CCOc1c(N=Nc2ccc(Br)cc2)c(C)nn1C(=S)S
survivor count (dose: 240.0 mg/kg/injection, schedule: Q01DX005 (ip), vehicle: Klucel (hydroxypropylcellulose) (HPC)): 6 of 6

CCCCOP(O)(=S)OCCCC.[Gd]
survivor count [1]: 6 of 6
